{"source": "PubChem BioAssay AID1347075", "about": "(National Center for Advancing Translational Sciences (NCATS), 2019)", "note": "The campaign covered roughly 400,000 compounds. About 5,500 (1.4%) were called active. Inconclusive results, whose numbers are uncertain, are shown with a selection of clear calls. The call rests on the fitted dose curve; in most records, active means well fitted cell-killing curve with a large enough effect; inconclusive means small, poorly fitted or top-dose-only effect, or effect the other way; inactive means flat fitted curve, though single readings scatter. A potency beside an inconclusive call is a rough fit, not a confirmed value. On the % scale 0 is the no-effect control and ±100 the full control effect; potency means the concentration at half of the fitted maximal effect.", "data": [{"test": "qHTS assay for MDR1-selective chemotherapeutics: Primary screen using the parental adenocarcinoma cell KB-3-1; further: nearly all actives have a fitted effect of over 60% in size", "conditions": "KB-3-1 viability, CellTiter-Glo ATP luminescence, 72 h; activity change, negative = cytotoxic: at 46.1 µM (top of the series)", "procedure,_shortened": "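Using CellTiter-Glo luminescence, growth of non-resistant KB-3-1 adenocarcinoma cells is assessed 72 h after pin-tool compound addition at 37 °C. Normalized responses across the concentration series yield fitted curves.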", "values": [{"smiles": "CCn1c(CCl)nc2cc(S(=O)(=O)N3CCOCC3)ccc21", "Potency": "inconclusive: 29.1 µM [cytotoxic, single point]"}, {"smiles": "Cc1ccc(C(=O)COC(=O)c2ccco2)cc1C", "activity change, negative = cytotoxic": "inactive: 3.22%"}, {"smiles": "Cc1nn(C)c(C(=O)NC(=S)Nc2ccccc2O)c1Cl", "activity change, negative = cytotoxic": "inactive: 10.8%"}, {"smiles": "COc1ccc(C(=O)NC(=S)NNC(=O)c2ccc(C)cc2)cc1", "Potency": "inconclusive: 18.4 µM [cytotoxic, single point]"}, {"smiles": "CCN(CC)c1nc(OCCNC(=O)Nc2ccccc2)nc(N(CC)CC)n1", "Potency": "inconclusive: 18.4 µM [cytotoxic, single point]"}, {"smiles": "Clc1cccc(Cl)c1Cn1cnc2c(NCc3ccco3)ncnc21", "Potency": "inconclusive: 20 µM [cytotoxic, single point]"}, {"smiles": "C=CCNC(=S)Nc1nc2c(cc1C(=O)OCC)CCCC2", "activity change, negative = cytotoxic": "inactive: 0%"}, {"smiles": "CCC(C)c1ccc(C(C)NC(=S)NC2CCCCC2)cc1", "note": "(configuration not stated)", "Potency": "inconclusive: 18.4 µM [cytotoxic, single point]"}, {"smiles": "O=C(C1CCCN(CCCc2ccccc2)C1)N1CCCCC1", "note": "(configuration not stated)", "Potency": "inconclusive: 5.17 µM [rising, partial curve]"}, {"smiles": "Cn1c2c(c3ccccc31)CCN1CCC[C@]21c1ccccc1", "Potency": "inconclusive: 25.9 µM [cytotoxic, single point]"}, {"smiles": "CCc1ccc(OCC(=O)NC(NC(=S)Nc2ccccc2C)C(Cl)(Cl)Cl)cc1", "note": "(configuration not stated)", "Potency": "inconclusive: 29.1 µM [cytotoxic, single point]"}, {"smiles": "Cc1nc(/C=C/c2ccccc2)[nH]c(=O)c1-c1ccccc1", "Potency": "inconclusive: 29.1 µM [cytotoxic, single point]"}, {"smiles": "CCN1C=CC(=C2C(=O)c3ccccc3C2=O)C=C1", "Potency": "active: 14.6 µM"}, {"smiles": "COc1cc(OC)cc(C(=O)Nc2nc(CC(=O)NCc3ccc(F)cc3)cs2)c1", "Potency": "inconclusive: 23.1 µM [cytotoxic, single point]"}, {"smiles": "CC(=O)Nc1ccc(SCC(=O)Nc2ccccc2-c2ccccc2)cc1", "activity change, negative = cytotoxic": "inactive: -19.1%"}, {"smiles": "O=C1C=CC(=O)N1c1ccc(-c2nc3ccccc3o2)cc1", "activity change, negative = cytotoxic": "inactive: 9.3%"}, {"smiles": "Cc1cc(C)cc(NC(=O)N2CCCN(Cc3c(F)cccc3Cl)CC2)c1", "activity change, negative = cytotoxic": "inactive: 0%"}, {"smiles": "Cn1cc(S(=O)(=O)c2ccccc2)c(=O)c2cc(F)c(N3CCCCCC3)cc21", "activity change, negative = cytotoxic": "inactive: -12%"}, {"smiles": "Cc1sc2ncnc(NCc3ccco3)c2c1C", "Potency": "active: 6.51 µM"}, {"smiles": "Cc1nnc2sc(-c3ccc(-c4ccc(Cl)c(C(F)(F)F)c4)o3)nn12", "activity change, negative = cytotoxic": "inactive: 0.172%"}, {"smiles": "COc1ccc(OC)c(CNC(=O)Cn2nc(C)c3c(C)n(-c4ccc(C)cc4)nc3c2=O)c1", "Potency": "inconclusive: 23.1 µM [cytotoxic, partial curve, poor fit]"}, {"smiles": "Cc1ccccc1NC(=O)c1cc(-c2ccco2)nc2ccccc12", "Potency": "inconclusive: 2.91 µM [rising, full curve, poor fit]"}, {"smiles": "CCOCCCNC(=O)C1CCC(CNS(=O)(=O)c2ccc(Cl)cc2)CC1", "note": "(configuration not stated)", "Potency": "inconclusive: 29.1 µM [cytotoxic, single point]"}, {"smiles": "CC(C)C[C@H]1CN([C@@H](CC(C)C)CN2CCCC2CN2C(=S)NC[C@@H]2Cc2ccc(O)cc2)C(=S)N1CC1CCCCCC1", "note": "(some centres not stated)", "Potency": "inconclusive: 20.6 µM [cytotoxic, single point]"}, {"smiles": "C(=Nc1ccc(/C=C/c2ccnc3ccccc23)cc1)c1ccc2c(c1)OCO2", "activity change, negative = cytotoxic": "inactive: -7.19%"}, {"smiles": "COc1ccc(/C=C/C(=O)NC(=S)NNC(=O)c2cnccn2)cc1", "Potency": "inconclusive: 4.11 µM [cytotoxic, full curve, poor fit]"}, {"smiles": "COC(=O)[C@]1(Cc2ccccc2)N[C@H](c2ccc(-c3cccc(Cl)c3)c(OC)c2)[C@@H]2C(=O)N(C)C(=O)[C@@H]21", "Potency": "inconclusive: 7.31 µM [cytotoxic, partial curve]"}, {"smiles": "COc1ccc(COc2cc(-c3cccc(OC)c3)nc3ccc(NC(=O)C(C)C)cc23)cc1", "Potency": "active: 2.59 µM"}, {"smiles": "C=CCNc1nnc(SCC(=O)Nc2ccccc2OC)c2ccccc12", "activity change, negative = cytotoxic": "inactive: -2.78%"}, {"smiles": "Cc1nc2nc(SCC(=O)NCc3ccco3)nn2c(C)c1Cc1ccccc1", "Potency": "inconclusive: 29.1 µM [cytotoxic, single point]"}, {"smiles": "CCOc1ccc(Br)cc1C1=NN(C(C)=O)C(c2ccc([N+](=O)[O-])s2)O1", "note": "(configuration not stated)", "Potency": "inconclusive: 23.1 µM [cytotoxic, single point]"}, {"smiles": "O=C(C[N+]12CN3CN(CN(C3)C1)C2)c1ccc(I)cc1", "activity change, negative = cytotoxic": "inactive: 0.206%"}, {"smiles": "CCn1c2ccccc2c2cc(NC(=O)c3ccc(C)c([N+](=O)[O-])c3)ccc21", "Potency": "inconclusive: 16.4 µM [cytotoxic, single point]"}, {"smiles": "CC(C)Cc1csc(NC(=O)c2ccc(F)cc2)c1C(=O)O", "Potency": "inconclusive: 29.1 µM [cytotoxic, single point]"}, {"smiles": "CCCCC[C@H](C)N1C[C@@H](COCc2ccccc2)Oc2cc(N3CCC[C@@H]3COC)ccc2S1(=O)=O", "activity change, negative = cytotoxic": "inactive: -5.15%"}, {"smiles": "Cc1cc2c(cc1S(=O)(=O)Nc1ccc(F)cc1)n(C)c(=O)c(=O)n2C", "Potency": "inconclusive: 0.259 µM [rising, full curve]"}, {"smiles": "COc1ccc(NC(=O)CN(C)C(=O)c2cc(-c3cccs3)nn2-c2ccccc2)cc1", "activity change, negative = cytotoxic": "inactive: -0.917%"}, {"smiles": "CC1(C)SC(=S)N(NC(=O)Nc2cccc3ccccc23)C1N(O)C(=O)Nc1ccccc1", "note": "(configuration not stated)", "Potency": "inconclusive: 29.1 µM [cytotoxic, single point]"}, {"smiles": "CS(=O)(=O)c1ccc(Oc2ccc(-c3nnco3)cc2)c([N+](=O)[O-])c1", "Potency": "inconclusive: 18.4 µM [rising, single point]"}, {"smiles": "CC1CCCC(C)N1C(=O)CSc1nnc(C2CCCCC2)o1", "note": "(configuration not stated)", "activity change, negative = cytotoxic": "inactive: -3.86%"}, {"smiles": "Cc1cc(Oc2ccc([N+](=O)[O-])cc2)nc(N2CCOCC2)n1", "activity change, negative = cytotoxic": "inconclusive: 33.1%"}, {"smiles": "Clc1ccccc1C1CC(c2ccccc2)Nc2ncnn21", "note": "(configuration not stated)", "Potency": "inconclusive: 29.1 µM [cytotoxic, single point]"}, {"smiles": "COc1ccccc1N1CCN(C2CCCN(C(=O)CCc3c(C)noc3C)C2)CC1", "note": "(configuration not stated)", "activity change, negative = cytotoxic": "inactive: -7.14%"}, {"smiles": "COc1ccc(CCN2C(=O)CSC2=Nc2ccc(C)cc2C)cc1OC", "Potency": "inconclusive: 16.4 µM [cytotoxic, single point]"}, {"smiles": "CC1(C(=O)Nc2ccc(Cl)cc2)Cc2c(-c3cccc(C(F)(F)F)c3)ccnc2O1", "note": "(configuration not stated)", "Potency": "inconclusive: 29.1 µM [cytotoxic, single point]"}, {"smiles": "CC(=O)NC12CC3CC(C1)CC(C(=O)Nc1nc4ccc(F)cc4s1)(C3)C2", "activity change, negative = cytotoxic": "inactive: -12.6%"}, {"smiles": "CCCCCn1nnnc1C1(C)CCC(=O)N1Cc1ccco1", "note": "(configuration not stated)", "activity change, negative = cytotoxic": "inactive: 2.25%"}, {"smiles": "Cc1cc(Br)ccc1NC(=O)c1cnc(N2CCN(c3ccccn3)CC2)c2ccccc12", "Potency": "inconclusive: 29.1 µM [cytotoxic, single point]"}, {"smiles": "Cc1ccc(-n2nnnc2-c2cnc(-c3cccnc3)nc2C(F)(F)F)cc1", "Potency": "inconclusive: 23.1 µM [cytotoxic, single point]"}, {"smiles": "Cc1ccc(O)c(-c2cc(-c3cccc(F)c3)n[nH]2)c1", "Potency": "inconclusive: 18.4 µM [cytotoxic, partial curve, poor fit]"}, {"smiles": "O=C(C[C@H]1C[C@H](C(=O)N2CCOCC2)[C@@]2(CCC3CCCC3)c3[nH]c4ccc(Cl)cc4c3CCN2C1=O)NCc1ccco1", "Potency": "inconclusive: 20.6 µM [cytotoxic, partial curve, poor fit]"}, {"smiles": "CC(C)Nc1ncnc2c1ncn2[C@H]1CN(Cc2ccc(Cl)cc2)C[C@@H](CO)O1", "activity change, negative = cytotoxic": "inactive: 0%"}, {"smiles": "O=C(C1CC(=O)N(c2ccc(Cl)cc2)C1)N1CCN(Cc2ccc3c(c2)OCO3)CC1", "note": "(configuration not stated)", "activity change, negative = cytotoxic": "inactive: -9.23%"}, {"smiles": "Cc1ccc(N(C)C(=O)c2cnc(N3CCOCC3)c3ccccc23)cc1C", "activity change, negative = cytotoxic": "inactive: 5.18%"}, {"smiles": "CCCCCCn1c(SCCCC)nc2c1c(=O)[nH]c(=O)n2C", "activity change, negative = cytotoxic": "inactive: -4.25%"}, {"smiles": "CC(=O)c1cccc(NC(=O)CCCOc2ccc(C)cc2)c1", "activity change, negative = cytotoxic": "inactive: -0.712%"}, {"smiles": "O=C(CCl)N(c1ccccc1)c1c[nH]c2ccccc12", "Potency": "active: 16.4 µM"}, {"smiles": "Clc1ccc(CNc2ccc(N3CCN(Cc4ccccc4)CC3)cc2)cc1", "Potency": "inconclusive: 16.4 µM [cytotoxic, single point]"}, {"smiles": "CCC(Sc1nncn2c1cc1occc12)C(=O)Nc1ccc(C)c(Cl)c1", "note": "(configuration not stated)", "activity change, negative = cytotoxic": "inactive: 8.03%"}, {"smiles": "Cc1ccc(C(=O)NCC(c2cccs2)S(=O)(=O)c2cccs2)cc1", "note": "(configuration not stated)", "Potency": "active: 20.6 µM"}, {"smiles": "CCCNC(=O)c1ccc(N2CCC3(CC2)CC(c2ccccc2)=NO3)c([N+](=O)[O-])c1", "Potency": "inconclusive: 29.1 µM [cytotoxic, single point]"}, {"smiles": "Cc1cccc(N=Nc2ccc(O)c3ncccc23)c1", "Potency": "inconclusive: 2.91 µM [cytotoxic, full curve]"}, {"smiles": "O=C(NCC1CCCO1)c1cc([N+](=O)[O-])ccc1N1CCC(Cc2ccccc2)CC1", "note": "(configuration not stated)", "Potency": "active: 4.61 µM"}, {"smiles": "Cc1cc(NC(=O)c2cnn3c(C(F)F)cc(C4CC4)nc23)no1", "activity change, negative = cytotoxic": "inactive: 0.619%"}, {"smiles": "O=C(Cn1nc(-c2ccc(Cl)cc2)ccc1=O)NCc1ccccc1Cl", "activity change, negative = cytotoxic": "inactive: -1.69%"}, {"smiles": "CC(C)=CCC[C@H](C)C[C@@H]1Cc2[nH][nH]c(=O)c2[C@@H](c2ccc(F)cc2)O1", "activity change, negative = cytotoxic": "inactive: -7.88%"}, {"smiles": "CC[C@]12c3[nH]c4cc(-c5ccco5)ccc4c3CCN1C(=O)[C@@H](CC(=O)NCCCn1ccnc1)C[C@@H]2C(=O)N1CCN(C(=O)C2CC2)CC1", "activity change, negative = cytotoxic": "inconclusive: 17%"}, {"smiles": "Cc1cc(OCc2nc(N)nc(N)c2-c2ccc(Cl)c(Cl)c2)ccc1[N+](=O)[O-]", "Potency": "active: 2.06 µM"}, {"smiles": "Nc1nc(NCCCN2CCOCC2)nc(Nc2cccc(F)c2)c1[N+](=O)[O-]", "Potency": "inconclusive: 29.1 µM [cytotoxic, single point]"}, {"smiles": "O=S(=O)(c1ccc2c(c1)CCCC2)N1CCN(c2nc(-c3cccs3)nc3ccccc23)CC1", "Potency": "inconclusive: 29.1 µM [rising, single point]"}, {"smiles": "Cc1ccc2nc(C(C)(C)C)c(Cc3ccccc3C(F)(F)F)n2c1", "activity change, negative = cytotoxic": "inactive: -0.1%"}, {"smiles": "COc1ccc(Nc2nc(N)c([N+](=O)[O-])c(N3CCCC3)n2)cc1", "Potency": "inconclusive: 29.1 µM [cytotoxic, single point]"}]}]}
